Laboratory results published in the supplement of paper PMC10849652.
Some of the results follow.

The chains behind the UniProt entries cited, without tags or fusion partners. Where a name states a change or a piece, a line headed by the entry shows the natural chain unless it says otherwise.
UniProt Q96JB5: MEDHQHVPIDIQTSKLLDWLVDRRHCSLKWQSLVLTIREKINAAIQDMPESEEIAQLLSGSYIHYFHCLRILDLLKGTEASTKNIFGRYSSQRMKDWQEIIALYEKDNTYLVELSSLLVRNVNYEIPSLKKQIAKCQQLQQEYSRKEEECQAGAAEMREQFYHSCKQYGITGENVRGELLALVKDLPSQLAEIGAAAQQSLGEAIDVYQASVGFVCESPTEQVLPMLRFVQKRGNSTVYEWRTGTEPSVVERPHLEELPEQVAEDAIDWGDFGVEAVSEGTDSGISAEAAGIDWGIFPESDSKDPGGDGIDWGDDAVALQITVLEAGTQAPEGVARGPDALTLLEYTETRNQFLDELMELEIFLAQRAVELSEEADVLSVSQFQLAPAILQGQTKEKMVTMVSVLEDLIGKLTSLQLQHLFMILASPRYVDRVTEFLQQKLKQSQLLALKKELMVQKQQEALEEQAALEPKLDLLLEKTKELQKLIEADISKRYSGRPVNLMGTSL
UniProt Q5VXU3: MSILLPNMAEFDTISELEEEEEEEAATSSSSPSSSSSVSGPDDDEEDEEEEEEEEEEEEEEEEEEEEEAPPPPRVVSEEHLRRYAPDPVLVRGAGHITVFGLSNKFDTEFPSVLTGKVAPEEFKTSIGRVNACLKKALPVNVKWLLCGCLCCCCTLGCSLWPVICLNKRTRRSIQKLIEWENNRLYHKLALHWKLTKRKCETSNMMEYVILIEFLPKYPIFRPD
UniProt P21127: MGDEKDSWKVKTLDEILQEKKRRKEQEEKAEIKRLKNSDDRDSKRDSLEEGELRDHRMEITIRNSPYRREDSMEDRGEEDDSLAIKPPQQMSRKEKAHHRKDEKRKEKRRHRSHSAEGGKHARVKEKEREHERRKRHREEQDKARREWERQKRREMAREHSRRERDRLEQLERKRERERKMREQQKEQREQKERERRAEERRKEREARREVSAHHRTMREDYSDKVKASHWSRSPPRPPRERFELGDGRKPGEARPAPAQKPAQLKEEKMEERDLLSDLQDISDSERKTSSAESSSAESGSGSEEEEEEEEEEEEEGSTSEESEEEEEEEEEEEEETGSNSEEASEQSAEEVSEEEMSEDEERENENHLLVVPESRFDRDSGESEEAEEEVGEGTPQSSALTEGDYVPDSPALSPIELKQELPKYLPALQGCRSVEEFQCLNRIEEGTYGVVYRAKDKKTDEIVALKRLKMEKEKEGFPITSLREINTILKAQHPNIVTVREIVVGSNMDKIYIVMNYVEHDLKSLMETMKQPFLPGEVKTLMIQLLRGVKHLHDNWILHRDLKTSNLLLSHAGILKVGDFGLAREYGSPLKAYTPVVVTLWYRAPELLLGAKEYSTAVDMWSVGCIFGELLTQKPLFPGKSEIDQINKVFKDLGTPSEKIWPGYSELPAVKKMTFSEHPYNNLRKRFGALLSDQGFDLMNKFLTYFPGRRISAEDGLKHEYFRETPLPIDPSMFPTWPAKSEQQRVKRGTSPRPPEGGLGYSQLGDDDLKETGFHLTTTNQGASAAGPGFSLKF
UniProt P50750, whole entry, looked up: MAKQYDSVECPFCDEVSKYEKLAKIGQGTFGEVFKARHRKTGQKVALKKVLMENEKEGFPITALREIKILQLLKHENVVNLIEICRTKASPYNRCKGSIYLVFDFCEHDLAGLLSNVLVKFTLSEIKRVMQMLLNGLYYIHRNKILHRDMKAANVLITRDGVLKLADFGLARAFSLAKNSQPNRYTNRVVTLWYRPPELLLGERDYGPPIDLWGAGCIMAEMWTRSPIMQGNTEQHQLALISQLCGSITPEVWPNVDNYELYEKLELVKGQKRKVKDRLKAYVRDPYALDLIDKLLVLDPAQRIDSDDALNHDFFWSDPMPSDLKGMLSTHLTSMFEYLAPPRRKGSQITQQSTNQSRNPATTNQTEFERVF
UniProt P06493, whole entry, looked up: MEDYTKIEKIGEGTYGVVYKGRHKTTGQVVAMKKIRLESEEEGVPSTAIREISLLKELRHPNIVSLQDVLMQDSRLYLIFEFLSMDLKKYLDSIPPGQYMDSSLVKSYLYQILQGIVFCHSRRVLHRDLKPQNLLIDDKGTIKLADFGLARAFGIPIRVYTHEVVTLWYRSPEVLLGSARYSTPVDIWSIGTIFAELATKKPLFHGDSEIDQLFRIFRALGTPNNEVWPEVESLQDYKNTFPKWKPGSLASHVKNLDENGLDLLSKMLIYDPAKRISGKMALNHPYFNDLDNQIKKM
UniProt Q9Y6A4: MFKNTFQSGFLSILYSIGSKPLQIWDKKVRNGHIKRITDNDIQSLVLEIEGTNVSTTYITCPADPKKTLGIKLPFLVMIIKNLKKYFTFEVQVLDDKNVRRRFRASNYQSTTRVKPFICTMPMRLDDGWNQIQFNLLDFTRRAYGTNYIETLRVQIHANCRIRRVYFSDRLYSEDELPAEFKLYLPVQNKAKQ
UniProt Q00535, whole entry, looked up: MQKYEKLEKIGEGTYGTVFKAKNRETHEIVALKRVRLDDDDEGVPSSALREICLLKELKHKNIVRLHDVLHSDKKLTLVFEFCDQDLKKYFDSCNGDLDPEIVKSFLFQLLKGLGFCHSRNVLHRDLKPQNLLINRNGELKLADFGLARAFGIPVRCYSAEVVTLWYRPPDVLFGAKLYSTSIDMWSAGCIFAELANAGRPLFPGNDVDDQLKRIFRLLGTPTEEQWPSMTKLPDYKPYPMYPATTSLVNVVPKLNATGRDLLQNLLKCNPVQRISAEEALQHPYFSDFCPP
UniProt Q9H3R5: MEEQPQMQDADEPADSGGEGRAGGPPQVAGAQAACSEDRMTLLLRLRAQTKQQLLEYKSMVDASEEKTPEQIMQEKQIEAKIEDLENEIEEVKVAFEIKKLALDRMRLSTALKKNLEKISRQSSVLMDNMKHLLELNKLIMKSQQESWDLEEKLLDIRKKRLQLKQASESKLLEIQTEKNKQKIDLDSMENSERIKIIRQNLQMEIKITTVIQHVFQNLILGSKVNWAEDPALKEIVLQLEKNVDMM
UniProt Q96G23: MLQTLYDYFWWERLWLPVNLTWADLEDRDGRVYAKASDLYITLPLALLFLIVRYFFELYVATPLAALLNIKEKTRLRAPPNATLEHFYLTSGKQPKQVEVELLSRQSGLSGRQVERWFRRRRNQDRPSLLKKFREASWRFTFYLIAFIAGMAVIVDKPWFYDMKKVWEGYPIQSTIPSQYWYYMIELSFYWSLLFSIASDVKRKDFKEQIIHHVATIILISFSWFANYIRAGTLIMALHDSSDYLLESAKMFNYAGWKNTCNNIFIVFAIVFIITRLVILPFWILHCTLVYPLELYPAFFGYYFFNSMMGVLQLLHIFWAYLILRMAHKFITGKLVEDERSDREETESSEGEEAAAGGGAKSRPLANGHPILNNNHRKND

Tests used:
Test in all cases: log2 fold change, soluble protein after heating vs DMSO (PISA); higher = thermal stabilisation; K562 cells, 10 uM, 30 min; active = over 0.2 and 3.5 SD of the protein, either way, in both replicates (recomputed)
[1] = compound: CC[C@@H]1C(=O)N(C)c2cnc(Nc3ccc(C(=O)NC4CCN(C)CC4)cc3OC)nc2N1C1CCCC1
Summary of the method: (§1)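 Thermal stability values are relative to control samples and come from duplicates. They are expressed as log2 fold changes. For measurement, K562 cells (2×10^6 cells/mL) received 10 μM compound for 30 min, and aliquots were heated for 3 min over 48°C-58°C, pooled, and extracted at 4°C in PBS with 0.5% NP-40. Soluble protein, the supernatant after 21,000xg for 90 min, was quantified by TMTpro 16plex LC-MS/MS with equalised channel sums.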

volasertib = compound: CC[C@@H]1C(=O)N(C)c2cnc(Nc3ccc(C(=O)N[C@H]4CC[C@H](N5CCN(CC6CC6)CC5)CC4)cc3OC)nc2N1C(C)C [volasertib]
Summary of the method: as §1

[2] = compound: CC[C@H](C)N1C=C(C2=C(C=C(C=C21)C3=CN=C(C=C3)N4CCNCC4)C(=O)NCC5=C(C=C(NC5=O)C)C)C
Summary of the method: as §1

epoxomicin = compound: CC[C@H](C)[C@@H](C(=O)N[C@@H]([C@@H](C)O)C(=O)N[C@@H](CC(C)C)C(=O)[C@]1(CO1)C)NC(=O)[C@H]([C@@H](C)CC)N(C)C(=O)C [epoxomicin]
Summary of the method: as §1

[3] = compound: CCn1cc(-c2ccnc3[nH]c(-c4cccc(CN(C)C)c4)cc23)c(-c2ccc(NC(=O)N(C)C)cc2)n1
Summary of the method: as §1

[4] = compound: CN(C)CC(=O)Nc1ccc2[nH]c(=O)c3ccccc3c2c1
Summary of the method: as §1

[5] = compound: CN1C2=C(C3=C1C(=O)N(N=C3)CC4=CC(=CC=C4)N)SC(=C2)S(=O)C
Summary of the method: as §1

[6] = compound: CN1CCC(CNc2ccc3ncc(-c4cccc(OC(F)(F)F)c4)n3n2)CC1
Summary of the method: as §1

saracatinib = compound: CN1CCN(CCOc2cc(OC3CCOCC3)c3c(Nc4c(Cl)ccc5c4OCO5)ncnc3c2)CC1 [saracatinib]
Summary of the method: as §1

sotrastaurin = compound: CN1CCN(c2nc(C3=C(c4c[nH]c5ccccc45)C(=O)NC3=O)c3ccccc3n2)CC1 [sotrastaurin]
Summary of the method: as §1

Tubastatin A = compound: CN1CCc2c(c3ccccc3n2Cc2ccc(C(=O)NO)cc2)C1 [Tubastatin A]
Summary of the method: as §1

[7] = compound: CNC(=O)C1=CC=CC=C1NC2=NC(=NC=C2Cl)NC3=C(C=C(C=C3)N4CCOCC4)OC
Summary of the method: as §1

defactinib = compound: CNC(=O)c1ccc(Nc2ncc(C(F)(F)F)c(NCc3nccnc3N(C)S(C)(=O)=O)n2)cc1 [defactinib]
Summary of the method: as §1

rucaparib = compound: CNCc1ccc(-c2[nH]c3cc(F)cc4c3c2CCNC4=O)cc1 [rucaparib]
Summary of the method: as §1

[8] = compound: CNc1nc(-c2ccc3c(N)n[nH]c3c2)cc(N2C[C@@H](C(=O)NC3CCCCC3)CC[C@H]2C)n1
Summary of the method: as §1

encorafenib = compound: COC(=O)N[C@@H](C)CNc1nccc(-c2cn(C(C)C)nc2-c2cc(Cl)cc(NS(C)(=O)=O)c2F)n1 [encorafenib]
Summary of the method: as §1

[9] = compound: COC(=O)[C@H](CCSC)NC(=O)C1=C(C=C(C=C1)NC[C@H](CS)N)C2=CC=CC=C2
Summary of the method: as §1

[10] = compound: CCn1c(C(=O)N(C2CC2)C2CC2)cc2c3c(ncn3C)c(Nc3cc(C)n(C)n3)nc21
Summary of the method: as §1

rosiglitazone = compound: CN(CCOC1=CC=C(C=C1)C[C@H]2C(=O)NC(=O)S2)C3=CC=CC=N3 (racemic) [rosiglitazone]
Summary of the method: as §1

alvocidib = compound: CN1CC[C@H](c2c(O)cc(O)c3c(=O)cc(-c4ccccc4Cl)oc23)[C@H](O)C1 [alvocidib]
Summary of the method: as §1

Target	log2 fold change [1]	log2 fold change (volasertib)	log2 fold change [2]	log2 fold change (epoxomicin)	log2 fold change [3]	log2 fold change [4]	log2 fold change [5]	log2 fold change [6]	log2 fold change (saracatinib)	log2 fold change (sotrastaurin)	log2 fold change (Tubastatin A)	log2 fold change [7]	log2 fold change (defactinib)	log2 fold change (rucaparib)	log2 fold change [8]	log2 fold change (encorafenib)	log2 fold change [9]	log2 fold change [10]	log2 fold change (rosiglitazone)	log2 fold change (alvocidib)
CDK5RAP3 isoform 4 (UniProt Q96JB5)	inactive: -0.056	active: -0.296	inactive: 0	inactive: 0.021	inactive: -0.007	inactive: 0.033	inactive: -0.024	inactive: -0.002	inactive: -0.009	inactive: -0.099	inactive: 0.024	inactive: 0.035	inactive: -0.045	inactive: -0.029	inactive: 0.002	inactive: 0.033	inactive: -0.043			
CHIC1 (UniProt Q5VXU3)	inactive: 0.1	inactive: -0.177	inactive: -0.157	inactive: -0.422	inactive: -0.045		inactive: 0.029	inactive: -0.076	inactive: -0.148	inactive: 0.035	inactive: -0.096	inactive: 0.022		inactive: -0.21	inactive: -0.07	inactive: -0.09		inactive: -0.045	inactive: 0.108	
CDK11B (UniProt P21127)	inactive: 0.087	inactive: 0.047	inactive: 0.028	inactive: -0.072	inactive: -0.01	inactive: -0.107	inactive: 0.005	inactive: 0.094	inactive: -0.039	inactive: 0.035	inactive: 0.137	inactive: -0.098	inactive: -0.162	inactive: -0.323	inactive: -0.052	inactive: 0.077	inactive: -0.039			
CDK9 isoform 2 (UniProt P50750)	inactive: -0.01	inactive: 0.078	inactive: 0.064	inactive: -0.06	inactive: -0.092	inactive: -0.042	inactive: 0.178	inactive: 0.205	inactive: -0.028	inactive: -0.018	inactive: 0.01	inactive: -0.07	inactive: 0.03	inactive: 0.084	inactive: 0.036	inactive: 0.079	inactive: -0.091			active: 0.405
CDK1 (UniProt P06493)	inactive: -0.03	inactive: -0.05	inactive: 0.017	inactive: 0.055	inactive: 0	inactive: 0.03	inactive: 0.005	inactive: -0.108	inactive: 0.007	inactive: -0.045	inactive: 0.018	inactive: -0.043	inactive: -0.118	inactive: 0.013	inactive: 0.01	inactive: -0.01	inactive: 0.003			
CFAP20 (UniProt Q9Y6A4)	inactive: 0.11	inactive: -0.002	inactive: 0.041	inactive: -0.113	inactive: 0.08	inactive: -0.002	inactive: 0.113	inactive: -0.006	inactive: -0.054	inactive: 0.029	inactive: 0.045	inactive: -0.007	inactive: 0.046	inactive: 0.145	inactive: 0.026	inactive: 0.097	inactive: 0.027	inactive: -0.028	inactive: -0.003	inactive: 0.129
CDK5 (UniProt Q00535)	inactive: -0.087	active: -0.259	inactive: 0.095	inactive: 0	inactive: -0.039	inactive: 0.002	inactive: -0.014	inactive: 0.025	inactive: -0.008	inactive: 0.094	inactive: -0.013	inactive: 0.029	inactive: 0.143	inactive: 0.05	inactive: 0.006	inactive: 0.049	inactive: -0.042			
CENPH (UniProt Q9H3R5)	inactive: -0.245	inactive: -0.202	inactive: 0.001	inactive: 0.102		inactive: -0.175	inactive: 0.184		inactive: -0.147	inactive: -0.055	inactive: 0.068	inactive: 0.027	inactive: -0.216	inactive: 0.197	inactive: -0.004	inactive: 0.084	inactive: -0.283	inactive: -0.045	inactive: 0.093	inactive: 0.083
CERS2 (UniProt Q96G23)	inactive: -0.148	inactive: -0.133	inactive: 0.011	inactive: 0.03	inactive: -0.001	inactive: 0.001	inactive: 0.007	active: -0.46	inactive: 0.012	inactive: -0.033	inactive: -0.056	inactive: -0.121	inactive: -0.001	inactive: 0.002	inactive: -0.048	inactive: 0.017	inactive: 0.03			
